These are yes or no findings as the source states them, for the method shown. In cells and extracts the contact can be indirect. Some binding calls cover weakened binding; strength is not graded here. For some assays here: Sequences can lack the tags named with a protein. Values belong to the molecule of their own block, whether it stands above or below them.
Columns and labels:
[1] = target: T1, Flag-menin (in LX2 cells) (UniProt O00255); assay: co-IP; anti-Flag magnetic beads; LX2 cells transfected with Flag-menin and treated with TGF-β (10 ng/ml) for 48 h; blot for Flag, SETD2, PPARγ
T1 sequence: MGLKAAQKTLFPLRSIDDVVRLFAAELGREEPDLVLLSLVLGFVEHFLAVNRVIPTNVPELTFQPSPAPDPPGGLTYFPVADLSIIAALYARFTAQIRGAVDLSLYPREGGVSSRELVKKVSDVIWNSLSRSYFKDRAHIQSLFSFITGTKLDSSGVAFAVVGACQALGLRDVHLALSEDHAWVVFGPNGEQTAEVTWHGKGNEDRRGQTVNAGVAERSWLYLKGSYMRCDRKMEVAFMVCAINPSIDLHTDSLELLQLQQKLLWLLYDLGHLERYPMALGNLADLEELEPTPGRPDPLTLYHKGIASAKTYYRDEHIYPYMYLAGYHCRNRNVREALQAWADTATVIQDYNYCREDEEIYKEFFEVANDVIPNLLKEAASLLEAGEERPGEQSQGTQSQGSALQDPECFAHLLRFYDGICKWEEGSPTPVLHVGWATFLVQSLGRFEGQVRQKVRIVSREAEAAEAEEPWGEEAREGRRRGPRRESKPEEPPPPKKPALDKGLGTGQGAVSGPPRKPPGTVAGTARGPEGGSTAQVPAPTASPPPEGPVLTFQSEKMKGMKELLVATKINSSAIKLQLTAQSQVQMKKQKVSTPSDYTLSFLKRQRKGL

The chains behind the UniProt entries cited, without tags or fusion partners.
UniProt Q9BYW2: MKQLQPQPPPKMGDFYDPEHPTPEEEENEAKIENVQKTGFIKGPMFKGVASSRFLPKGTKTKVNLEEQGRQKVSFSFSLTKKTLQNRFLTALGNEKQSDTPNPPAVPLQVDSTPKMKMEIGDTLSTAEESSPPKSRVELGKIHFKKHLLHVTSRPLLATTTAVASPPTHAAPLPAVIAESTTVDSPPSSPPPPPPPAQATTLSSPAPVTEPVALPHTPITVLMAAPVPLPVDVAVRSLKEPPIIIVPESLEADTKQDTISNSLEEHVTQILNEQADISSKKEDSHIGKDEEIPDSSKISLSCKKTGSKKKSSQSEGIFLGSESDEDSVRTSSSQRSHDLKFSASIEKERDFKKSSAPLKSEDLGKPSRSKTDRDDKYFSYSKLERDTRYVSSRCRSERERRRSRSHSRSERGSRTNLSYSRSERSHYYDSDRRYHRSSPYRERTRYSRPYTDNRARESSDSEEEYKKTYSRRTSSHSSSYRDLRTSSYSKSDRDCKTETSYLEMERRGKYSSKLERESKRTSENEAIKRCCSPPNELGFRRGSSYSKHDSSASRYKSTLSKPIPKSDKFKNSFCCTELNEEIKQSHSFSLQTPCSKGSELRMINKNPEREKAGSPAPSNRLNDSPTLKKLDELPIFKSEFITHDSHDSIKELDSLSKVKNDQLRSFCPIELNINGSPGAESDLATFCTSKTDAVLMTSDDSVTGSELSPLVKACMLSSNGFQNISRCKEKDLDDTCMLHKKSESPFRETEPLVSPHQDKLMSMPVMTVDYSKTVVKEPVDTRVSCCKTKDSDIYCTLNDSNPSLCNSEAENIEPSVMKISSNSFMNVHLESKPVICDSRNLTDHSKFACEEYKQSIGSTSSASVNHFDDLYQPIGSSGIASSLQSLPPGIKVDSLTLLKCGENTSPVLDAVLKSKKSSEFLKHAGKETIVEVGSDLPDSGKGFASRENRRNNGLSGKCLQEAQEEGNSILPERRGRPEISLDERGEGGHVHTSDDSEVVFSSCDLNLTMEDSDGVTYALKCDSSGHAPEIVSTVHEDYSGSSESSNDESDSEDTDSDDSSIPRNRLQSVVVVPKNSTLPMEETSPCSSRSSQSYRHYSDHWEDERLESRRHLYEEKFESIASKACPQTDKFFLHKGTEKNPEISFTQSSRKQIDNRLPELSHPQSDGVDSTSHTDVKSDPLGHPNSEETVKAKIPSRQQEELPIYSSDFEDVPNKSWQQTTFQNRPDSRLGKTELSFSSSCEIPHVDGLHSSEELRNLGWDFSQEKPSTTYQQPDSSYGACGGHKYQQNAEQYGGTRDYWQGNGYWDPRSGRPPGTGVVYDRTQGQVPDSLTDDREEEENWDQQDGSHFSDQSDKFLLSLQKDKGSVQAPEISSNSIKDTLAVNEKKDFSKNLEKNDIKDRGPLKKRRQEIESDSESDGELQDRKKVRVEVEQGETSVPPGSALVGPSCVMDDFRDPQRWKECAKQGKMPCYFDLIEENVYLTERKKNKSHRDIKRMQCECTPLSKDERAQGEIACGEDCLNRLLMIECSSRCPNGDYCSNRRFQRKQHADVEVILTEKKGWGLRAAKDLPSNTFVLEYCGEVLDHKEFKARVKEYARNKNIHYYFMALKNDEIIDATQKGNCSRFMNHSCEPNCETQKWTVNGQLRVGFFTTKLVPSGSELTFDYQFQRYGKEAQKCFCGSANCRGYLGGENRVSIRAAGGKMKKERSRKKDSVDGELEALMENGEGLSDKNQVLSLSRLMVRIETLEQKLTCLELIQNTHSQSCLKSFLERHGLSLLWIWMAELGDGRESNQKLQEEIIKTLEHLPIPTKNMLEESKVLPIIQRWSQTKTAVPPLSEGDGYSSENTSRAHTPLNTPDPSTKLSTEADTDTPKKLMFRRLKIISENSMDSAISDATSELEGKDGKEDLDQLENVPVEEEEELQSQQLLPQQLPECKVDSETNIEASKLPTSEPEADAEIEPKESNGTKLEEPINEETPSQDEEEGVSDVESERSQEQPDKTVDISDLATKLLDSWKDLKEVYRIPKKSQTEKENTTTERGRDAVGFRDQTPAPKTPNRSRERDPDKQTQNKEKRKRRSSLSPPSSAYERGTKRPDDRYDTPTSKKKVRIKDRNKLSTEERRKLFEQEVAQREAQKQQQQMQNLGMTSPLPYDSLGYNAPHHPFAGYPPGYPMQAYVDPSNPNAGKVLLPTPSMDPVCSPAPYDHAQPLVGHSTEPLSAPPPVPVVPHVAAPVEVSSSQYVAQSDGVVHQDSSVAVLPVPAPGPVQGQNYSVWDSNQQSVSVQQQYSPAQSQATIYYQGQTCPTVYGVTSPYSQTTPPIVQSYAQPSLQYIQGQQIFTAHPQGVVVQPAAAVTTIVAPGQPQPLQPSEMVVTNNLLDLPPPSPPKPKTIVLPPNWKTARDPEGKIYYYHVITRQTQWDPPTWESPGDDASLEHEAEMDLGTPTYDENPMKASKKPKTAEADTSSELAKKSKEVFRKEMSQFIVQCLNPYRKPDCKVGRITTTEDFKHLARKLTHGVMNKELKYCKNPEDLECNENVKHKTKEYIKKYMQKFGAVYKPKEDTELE
UniProt P37231: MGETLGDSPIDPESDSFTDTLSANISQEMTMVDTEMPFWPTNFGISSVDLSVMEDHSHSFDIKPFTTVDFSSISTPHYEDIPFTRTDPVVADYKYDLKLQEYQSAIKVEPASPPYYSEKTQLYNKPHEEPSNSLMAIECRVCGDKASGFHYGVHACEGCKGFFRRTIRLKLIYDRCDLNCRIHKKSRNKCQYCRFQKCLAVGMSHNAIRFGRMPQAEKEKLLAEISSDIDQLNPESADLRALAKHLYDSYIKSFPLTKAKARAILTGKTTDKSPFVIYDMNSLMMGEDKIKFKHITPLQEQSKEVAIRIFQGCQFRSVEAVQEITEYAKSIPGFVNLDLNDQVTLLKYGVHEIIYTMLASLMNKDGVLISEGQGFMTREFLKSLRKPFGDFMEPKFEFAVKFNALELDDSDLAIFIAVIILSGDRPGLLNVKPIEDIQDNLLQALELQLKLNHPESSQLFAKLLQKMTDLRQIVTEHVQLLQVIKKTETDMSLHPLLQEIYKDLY

[2] = target: Flag-SETD2 (in LX2 cells) (UniProt Q9BYW2); assay: co-IP; anti-Flag magnetic beads; LX2 cells transfected with Flag-PPARγ, Flag-SETD2 or Flag-menin, basal conditions; blot for menin, SETD2, PPARγ, Flag
[3] = target: T1, Flag-menin (in LX2 cells); assay: as above
[4] = target: Flag-PPARγ (in LX2 cells) (UniProt P37231); assay: as above

binding [2]: binds | binding [3]: binds
Molecule: PPARγ (endogenous in LX2 cells) (from UniProt P37231 1-505)
binding [1]: no binding (condition: TGF-β (10 ng/ml) for 48 h)

binding [4]: binds | binding [2]: binds
B1: menin (endogenous in LX2 cells) (protein, UniProt O00255 1-610)
chain: T1 sequence
